No constants are given. Whether binding was seen depends on the method and setting. In cells and extracts the contact can be indirect. Some entries that bind do so weakly or less than the wild type.
Target: T1, Myeloid differentiation protein 2 (MD2), mouse, endogenous in peritoneal macrophages (mouse (endogenous in MPMs)) (UniProt Q9JHF9)
T1 sequence: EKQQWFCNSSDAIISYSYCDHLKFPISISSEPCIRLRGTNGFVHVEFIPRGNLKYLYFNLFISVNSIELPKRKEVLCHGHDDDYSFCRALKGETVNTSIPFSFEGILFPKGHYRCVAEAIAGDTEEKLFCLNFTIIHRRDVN
Assay: co-IP; MPM lysate (400 ug protein) precipitated with MD2 antibody and protein A + G agarose, 4 °C overnight, Western blot; cells treated with vehicle, LPS (0.5 ug/mL, 5 min) or LPS after 10 uM compound 20

Protein sequences, listed by entry. Tags and fused reporters are not part of them. Residues count along the entry.
UniProt Q9QUK6, residues 26-835: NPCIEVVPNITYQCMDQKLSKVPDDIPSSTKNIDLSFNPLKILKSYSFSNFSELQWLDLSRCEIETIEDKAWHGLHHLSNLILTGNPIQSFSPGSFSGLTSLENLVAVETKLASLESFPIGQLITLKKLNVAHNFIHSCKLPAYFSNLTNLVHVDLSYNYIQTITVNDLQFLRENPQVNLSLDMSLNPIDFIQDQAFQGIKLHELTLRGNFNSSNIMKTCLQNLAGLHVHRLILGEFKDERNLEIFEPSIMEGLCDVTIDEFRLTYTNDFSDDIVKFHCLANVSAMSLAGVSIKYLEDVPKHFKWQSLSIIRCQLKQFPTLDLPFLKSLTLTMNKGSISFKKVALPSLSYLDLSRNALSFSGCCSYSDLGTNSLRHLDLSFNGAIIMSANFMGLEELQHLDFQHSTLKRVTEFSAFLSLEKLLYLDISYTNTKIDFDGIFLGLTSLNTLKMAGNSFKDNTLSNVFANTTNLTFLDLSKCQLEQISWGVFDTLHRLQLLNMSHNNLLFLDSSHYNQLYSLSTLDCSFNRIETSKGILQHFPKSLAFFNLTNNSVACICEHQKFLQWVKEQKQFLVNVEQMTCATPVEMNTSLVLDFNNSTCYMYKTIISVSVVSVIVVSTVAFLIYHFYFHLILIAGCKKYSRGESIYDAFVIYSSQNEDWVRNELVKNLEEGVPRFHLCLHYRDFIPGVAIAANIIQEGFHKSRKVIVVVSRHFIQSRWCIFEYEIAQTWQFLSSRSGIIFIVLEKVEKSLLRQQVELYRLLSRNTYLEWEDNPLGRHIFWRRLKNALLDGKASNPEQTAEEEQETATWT

## Toll-like receptor 4 (TLR4), mouse, endogenous in peritoneal macrophages (from UniProt Q9QUK6 26-835)
  binding: binds

From paper PMC4846832, “Discovery of new MD2 inhibitor from chalcone derivatives with anti-inflammatory effects in LPS-induced acute lung injury” (Scientific Reports, 2016)
